Patent US20150376238A1 (University of Washington, published 2015)

Biological target: H1 hemagglutinin (A/Solomon Islands/3/2006) (Influenza A virus A/Solomon Islands/3/2006 (H1N1))
Experiment: yeast surface display titration

B1: 52alt1-3 (designed binder)
chain: GIVNVPNPNTTKYQQLARSAIAIYNNHQNAHLEFVENLNVKEQVSYGAMYYITLAATDDAGKKKIYKAKVGVVESAGWVGVEEFKLV
In the case of B1, the binding is reported as “no binding”.

These are yes or no findings as the source states them, for the method shown.
